No constants are given. Whether binding was seen depends on the method and setting. Some binding calls cover weakened binding; strength is not graded here.
Target: EPRS (glutamyl-prolyl tRNA synthetase), human 세포에서 원래 발현된 EPRS (Hela cell lysate) (human) (UniProt P07814)
Assay: western blot on HeLa cell lysate (clones from panning on EPRS WHEP domain antigen)

Protein sequences, listed by entry. Tags and fused reporters are not part of them.
UniProt P07814: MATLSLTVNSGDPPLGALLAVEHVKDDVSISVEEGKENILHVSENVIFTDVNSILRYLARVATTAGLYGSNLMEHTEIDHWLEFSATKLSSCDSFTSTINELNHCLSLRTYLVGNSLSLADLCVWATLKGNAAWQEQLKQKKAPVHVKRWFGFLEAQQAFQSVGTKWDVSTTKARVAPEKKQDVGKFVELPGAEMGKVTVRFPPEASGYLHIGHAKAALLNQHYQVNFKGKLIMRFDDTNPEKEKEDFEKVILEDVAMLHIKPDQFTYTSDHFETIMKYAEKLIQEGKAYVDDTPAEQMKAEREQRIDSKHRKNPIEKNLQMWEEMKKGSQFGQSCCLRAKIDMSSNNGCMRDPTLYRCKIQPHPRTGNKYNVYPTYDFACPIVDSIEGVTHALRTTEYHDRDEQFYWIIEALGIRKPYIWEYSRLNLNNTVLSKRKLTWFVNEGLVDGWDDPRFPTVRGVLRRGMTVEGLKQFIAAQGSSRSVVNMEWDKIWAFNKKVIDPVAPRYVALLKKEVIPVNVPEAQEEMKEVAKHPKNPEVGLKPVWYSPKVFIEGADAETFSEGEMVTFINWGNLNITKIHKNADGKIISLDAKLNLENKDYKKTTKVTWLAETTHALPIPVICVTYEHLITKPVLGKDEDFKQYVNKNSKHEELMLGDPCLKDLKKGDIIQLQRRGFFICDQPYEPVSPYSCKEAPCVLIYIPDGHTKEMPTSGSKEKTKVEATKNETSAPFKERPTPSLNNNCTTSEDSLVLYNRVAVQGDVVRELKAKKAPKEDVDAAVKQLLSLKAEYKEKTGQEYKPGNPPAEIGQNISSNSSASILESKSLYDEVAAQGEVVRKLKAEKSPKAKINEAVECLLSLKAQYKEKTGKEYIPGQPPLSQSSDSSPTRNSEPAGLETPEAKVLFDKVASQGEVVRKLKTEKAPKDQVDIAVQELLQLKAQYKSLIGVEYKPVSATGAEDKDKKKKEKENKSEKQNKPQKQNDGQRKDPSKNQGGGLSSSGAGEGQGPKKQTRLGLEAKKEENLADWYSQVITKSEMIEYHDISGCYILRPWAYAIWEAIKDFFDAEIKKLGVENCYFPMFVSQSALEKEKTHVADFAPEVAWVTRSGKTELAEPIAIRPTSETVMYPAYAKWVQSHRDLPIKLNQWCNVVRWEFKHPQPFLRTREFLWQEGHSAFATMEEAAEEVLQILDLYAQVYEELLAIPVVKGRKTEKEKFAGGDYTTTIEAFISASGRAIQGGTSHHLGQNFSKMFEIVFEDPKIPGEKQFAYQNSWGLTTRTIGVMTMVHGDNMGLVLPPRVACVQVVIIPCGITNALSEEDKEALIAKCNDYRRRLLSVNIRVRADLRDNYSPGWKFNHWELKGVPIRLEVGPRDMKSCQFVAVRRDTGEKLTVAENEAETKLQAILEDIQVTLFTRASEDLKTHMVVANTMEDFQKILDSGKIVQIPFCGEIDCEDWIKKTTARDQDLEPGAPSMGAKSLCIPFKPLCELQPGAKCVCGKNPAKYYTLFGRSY

B1: SEQ ID NO 14 (scFv)
scFv: EVQLLESGGGLVQPGGSLGLSCAASGFTFSDYDMSWVRRAPGKGLEWVSAISSGGGNTYYADSVKGRFTISRDNSKNTLYLQMNSLRAEDTAVYYCARNRFVFDYWGQGTLVTVSSGGGGSGGGGSGGGGSQSVLTQPPSASGTPGQRVTISCSGSSSNIGNNAVNWYQQLPGTAPKLLIYANSHRPSGVPDRFSGSKSGTSASLAISGLRSEDEADYYCGTWDYSLNGYVFGGGTKLTVL
- binding: binds
